Laboratory results published in patent US11384101B2, “Oral care compositions” (priority 2017, dated 2022).

Conditions: room temperature

| Structure (SMILES) | concentrations at which readily soluble in water (up to) | concentrations producing a translucent gel or soft-solid material (water) |
| --- | --- | --- |
| [Cl-].[Cl-].[Zn+2] [ZnCl2, zinc chloride] | up to 75 weight % | – |
| CCCCCCCCCCCCCCCC[n+]1ccccc1 [CPC, Cetylpyridinium chloride, reference compound] | up to 25 weight % | greater than 40 weight % |
